{
  "source": "the supplement of paper PMC11438910",
  "binders": {"B1": {"name": "4-99.3 (protein)", "chain 1": "QVQLQESGPGLVKPSETLSLTCAVSGYSISSGYYWGWIRQPPGKGLEYIGYISGSWGKSYYKPSLKSRVTISKDTSKNQFSLTLSSVTAADTAVYYCARRLEYVGFDVWGPGVLVTVSS", "chain 2": "QAAPTQPPSVSGSPGQSVTISCTGTSSDIGYYNAVSWYQQHPGKAPKLMIYEVSKRPSGVSDRFSGSKSGNTASLTISGLQAEDEADYYCSSYAGSNTYIFGSGTRLTVL"}},
  "experiment_in_all_cases": "fluorescence intensity of antibody binding to polysaccharide-coupled beads; higher = stronger binding",
  "key": {"[1]": {"molecular_target": "pneumococcal polysaccharide Pn23F"}, "[2]": {"molecular_target": "pneumococcal polysaccharide Pn24A"}, "[3]": {"molecular_target": "pneumococcal polysaccharide Pn24B"}, "[4]": {"molecular_target": "pneumococcal polysaccharide Pn24F"}, "[5]": {"molecular_target": "pneumococcal polysaccharide Pn25A"}, "[6]": {"molecular_target": "pneumococcal polysaccharide Pn25F"}, "[7]": {"molecular_target": "pneumococcal polysaccharide Pn27"}, "[8]": {"molecular_target": "pneumococcal polysaccharide Pn28A"}, "[9]": {"molecular_target": "pneumococcal polysaccharide Pn28F"}, "[10]": {"molecular_target": "pneumococcal polysaccharide Pn29"}, "[11]": {"molecular_target": "pneumococcal polysaccharide Pn3"}, "[12]": {"molecular_target": "pneumococcal polysaccharide Pn31"}, "[13]": {"conditions": "antibody concentration 2.8593 ng/mL"}, "[14]": {"conditions": "antibody concentration 15.2894 ng/mL"}, "[15]": {"conditions": "antibody concentration 81.7561 ng/mL"}, "[16]": {"conditions": "antibody concentration 437.17 ng/mL"}, "[17]": {"conditions": "antibody concentration 2337.65 ng/mL"}, "[18]": {"conditions": "antibody concentration 12500 ng/mL"}, "[19]": {"conditions": "antibody concentration 0.1 ng/mL"}, "[20]": {"conditions": "antibody concentration 0.534724 ng/mL"}},
  "note": "The other results are listed elsewhere or left out. Only a few entries rise above the background.",
  "data": [
    {"binder": "B1", "values": [
      {"measurement": "fluorescence intensity", "setting": "[1]; [13]", "value": 19.5, "unit": "MFI"},
      {"measurement": "fluorescence intensity", "setting": "[1]; [14]", "value": 16.5, "unit": "MFI"},
      {"measurement": "fluorescence intensity", "setting": "[1]; [15]", "value": 17.5, "unit": "MFI"},
      {"measurement": "fluorescence intensity", "setting": "[1]; [16]", "value": 19.8, "unit": "MFI"},
      {"measurement": "fluorescence intensity", "setting": "[1]; [17]", "value": 22, "unit": "MFI"},
      {"measurement": "fluorescence intensity", "setting": "[1]; [18]", "value": 53, "unit": "MFI"},
      {"measurement": "fluorescence intensity", "setting": "[2]; [19]", "value": 15.8, "unit": "MFI"},
      {"measurement": "fluorescence intensity", "setting": "[2]; [20]", "value": 15, "unit": "MFI"},
      {"measurement": "fluorescence intensity", "setting": "[2]; [13]", "value": 16.5, "unit": "MFI"},
      {"measurement": "fluorescence intensity", "setting": "[2]; [14]", "value": 14, "unit": "MFI"},
      {"measurement": "fluorescence intensity", "setting": "[2]; [15]", "value": 15.5, "unit": "MFI"},
      {"measurement": "fluorescence intensity", "setting": "[2]; [16]", "value": 15, "unit": "MFI"},
      {"measurement": "fluorescence intensity", "setting": "[2]; [17]", "value": 18.5, "unit": "MFI"},
      {"measurement": "fluorescence intensity", "setting": "[2]; [18]", "value": 41.8, "unit": "MFI"},
      {"measurement": "fluorescence intensity", "setting": "[3]; [19]", "value": 16.8, "unit": "MFI"},
      {"measurement": "fluorescence intensity", "setting": "[3]; [20]", "value": 17.5, "unit": "MFI"},
      {"measurement": "fluorescence intensity", "setting": "[3]; [13]", "value": 16.5, "unit": "MFI"},
      {"measurement": "fluorescence intensity", "setting": "[3]; [14]", "value": 18.2, "unit": "MFI"},
      {"measurement": "fluorescence intensity", "setting": "[3]; [15]", "value": 17, "unit": "MFI"},
      {"measurement": "fluorescence intensity", "setting": "[3]; [16]", "value": 18, "unit": "MFI"},
      {"measurement": "fluorescence intensity", "setting": "[3]; [17]", "value": 30.5, "unit": "MFI"},
      {"measurement": "fluorescence intensity", "setting": "[3]; [18]", "value": 89.5, "unit": "MFI"},
      {"measurement": "fluorescence intensity", "setting": "[4]; [19]", "value": 16.5, "unit": "MFI"},
      {"measurement": "fluorescence intensity", "setting": "[4]; [20]", "value": 18.8, "unit": "MFI"},
      {"measurement": "fluorescence intensity", "setting": "[4]; [13]", "value": 16.8, "unit": "MFI"},
      {"measurement": "fluorescence intensity", "setting": "[4]; [14]", "value": 18.5, "unit": "MFI"},
      {"measurement": "fluorescence intensity", "setting": "[4]; [15]", "value": 18, "unit": "MFI"},
      {"measurement": "fluorescence intensity", "setting": "[4]; [16]", "value": 23.5, "unit": "MFI"},
      {"measurement": "fluorescence intensity", "setting": "[4]; [17]", "value": 36, "unit": "MFI"},
      {"measurement": "fluorescence intensity", "setting": "[4]; [18]", "value": 57.8, "unit": "MFI"},
      {"measurement": "fluorescence intensity", "setting": "[5]; [19]", "value": 22.5, "unit": "MFI"},
      {"measurement": "fluorescence intensity", "setting": "[5]; [20]", "value": 22.5, "unit": "MFI"},
      {"measurement": "fluorescence intensity", "setting": "[5]; [13]", "value": 22, "unit": "MFI"},
      {"measurement": "fluorescence intensity", "setting": "[5]; [14]", "value": 23, "unit": "MFI"},
      {"measurement": "fluorescence intensity", "setting": "[5]; [15]", "value": 23.5, "unit": "MFI"},
      {"measurement": "fluorescence intensity", "setting": "[5]; [16]", "value": 25.5, "unit": "MFI"},
      {"measurement": "fluorescence intensity", "setting": "[5]; [17]", "value": 29, "unit": "MFI"},
      {"measurement": "fluorescence intensity", "setting": "[5]; [18]", "value": 53.5, "unit": "MFI"},
      {"measurement": "fluorescence intensity", "setting": "[6]; [19]", "value": 28, "unit": "MFI"},
      {"measurement": "fluorescence intensity", "setting": "[6]; [20]", "value": 29, "unit": "MFI"},
      {"measurement": "fluorescence intensity", "setting": "[6]; [13]", "value": 30, "unit": "MFI"},
      {"measurement": "fluorescence intensity", "setting": "[6]; [14]", "value": 28, "unit": "MFI"},
      {"measurement": "fluorescence intensity", "setting": "[6]; [15]", "value": 29.8, "unit": "MFI"},
      {"measurement": "fluorescence intensity", "setting": "[6]; [16]", "value": 31.5, "unit": "MFI"},
      {"measurement": "fluorescence intensity", "setting": "[6]; [17]", "value": 34, "unit": "MFI"},
      {"measurement": "fluorescence intensity", "setting": "[6]; [18]", "value": 64.5, "unit": "MFI"},
      {"measurement": "fluorescence intensity", "setting": "[7]; [19]", "value": 15.2, "unit": "MFI"},
      {"measurement": "fluorescence intensity", "setting": "[7]; [20]", "value": 16, "unit": "MFI"},
      {"measurement": "fluorescence intensity", "setting": "[7]; [13]", "value": 15, "unit": "MFI"},
      {"measurement": "fluorescence intensity", "setting": "[7]; [14]", "value": 15.5, "unit": "MFI"},
      {"measurement": "fluorescence intensity", "setting": "[7]; [15]", "value": 16, "unit": "MFI"},
      {"measurement": "fluorescence intensity", "setting": "[7]; [16]", "value": 20.5, "unit": "MFI"},
      {"measurement": "fluorescence intensity", "setting": "[7]; [17]", "value": 39.5, "unit": "MFI"},
      {"measurement": "fluorescence intensity", "setting": "[7]; [18]", "value": 332, "unit": "MFI"},
      {"measurement": "fluorescence intensity", "setting": "[8]; [19]", "value": 25.5, "unit": "MFI"},
      {"measurement": "fluorescence intensity", "setting": "[8]; [20]", "value": 25, "unit": "MFI"},
      {"measurement": "fluorescence intensity", "setting": "[8]; [13]", "value": 25.5, "unit": "MFI"},
      {"measurement": "fluorescence intensity", "setting": "[8]; [14]", "value": 26.5, "unit": "MFI"},
      {"measurement": "fluorescence intensity", "setting": "[8]; [15]", "value": 25.5, "unit": "MFI"},
      {"measurement": "fluorescence intensity", "setting": "[8]; [16]", "value": 28, "unit": "MFI"},
      {"measurement": "fluorescence intensity", "setting": "[8]; [17]", "value": 29.2, "unit": "MFI"},
      {"measurement": "fluorescence intensity", "setting": "[8]; [18]", "value": 47.5, "unit": "MFI"},
      {"measurement": "fluorescence intensity", "setting": "[9]; [19]", "value": 26.2, "unit": "MFI"},
      {"measurement": "fluorescence intensity", "setting": "[9]; [20]", "value": 29, "unit": "MFI"},
      {"measurement": "fluorescence intensity", "setting": "[9]; [13]", "value": 28, "unit": "MFI"},
      {"measurement": "fluorescence intensity", "setting": "[9]; [14]", "value": 27, "unit": "MFI"},
      {"measurement": "fluorescence intensity", "setting": "[9]; [15]", "value": 29, "unit": "MFI"},
      {"measurement": "fluorescence intensity", "setting": "[9]; [16]", "value": 32, "unit": "MFI"},
      {"measurement": "fluorescence intensity", "setting": "[9]; [17]", "value": 37.5, "unit": "MFI"},
      {"measurement": "fluorescence intensity", "setting": "[9]; [18]", "value": 142, "unit": "MFI"},
      {"measurement": "fluorescence intensity", "setting": "[10]; [19]", "value": 15, "unit": "MFI"},
      {"measurement": "fluorescence intensity", "setting": "[10]; [20]", "value": 14.5, "unit": "MFI"},
      {"measurement": "fluorescence intensity", "setting": "[10]; [13]", "value": 15, "unit": "MFI"},
      {"measurement": "fluorescence intensity", "setting": "[10]; [14]", "value": 15.5, "unit": "MFI"},
      {"measurement": "fluorescence intensity", "setting": "[10]; [15]", "value": 17, "unit": "MFI"},
      {"measurement": "fluorescence intensity", "setting": "[10]; [16]", "value": 19, "unit": "MFI"},
      {"measurement": "fluorescence intensity", "setting": "[10]; [17]", "value": 30.2, "unit": "MFI"},
      {"measurement": "fluorescence intensity", "setting": "[10]; [18]", "value": 190, "unit": "MFI"},
      {"measurement": "fluorescence intensity", "setting": "[11]; [19]", "value": 14.5, "unit": "MFI"},
      {"measurement": "fluorescence intensity", "setting": "[11]; [20]", "value": 23.5, "unit": "MFI"},
      {"measurement": "fluorescence intensity", "setting": "[11]; [13]", "value": 67, "unit": "MFI"},
      {"measurement": "fluorescence intensity", "setting": "[11]; [14]", "value": 196, "unit": "MFI"},
      {"measurement": "fluorescence intensity", "setting": "[11]; [15]", "value": 1010, "unit": "MFI"},
      {"measurement": "fluorescence intensity", "setting": "[11]; [16]", "value": 4680, "unit": "MFI"},
      {"measurement": "fluorescence intensity", "setting": "[11]; [17]", "value": 8880, "unit": "MFI"},
      {"measurement": "fluorescence intensity", "setting": "[11]; [18]", "value": 8930, "unit": "MFI"},
      {"measurement": "fluorescence intensity", "setting": "[12]; [19]", "value": 12.5, "unit": "MFI"},
      {"measurement": "fluorescence intensity", "setting": "[12]; [20]", "value": 14.5, "unit": "MFI"},
      {"measurement": "fluorescence intensity", "setting": "[12]; [13]", "value": 13, "unit": "MFI"},
      {"measurement": "fluorescence intensity", "setting": "[12]; [14]", "value": 14.5, "unit": "MFI"}
    ]}
  ]
}
